# Laboratory results as given in the supplement of paper PMC8728848.
# The list shows a part of the results.
# B1: DC-Sign-R (Homo sapiens), Q9H2X3 (protein)
# chain: MSDSKEPRVQQLGLLEEDPTTSGIRLFPRDFQFQQIHGHKSSTGCLGHGALVLQLLSFMLLAGVLVAILVQVSKVPSSLSQEQSEQDAIYQNLTQLKAAVGELSEKSKLQEIYQELTQLKAAVGELPEKSKLQEIYQELTRLKAAVGELPEKSKLQEIYQELTRLKAAVGELPEKSKLQEIYQELTRLKAAVGELPEKSKLQEIYQELTELKAAVGELPEKSKLQEIYQELTQLKAAVGELPDQSKQQQIYQELTDLKTAFERLCRHCPKDWTFFQGNCYFMSNSQRNWHDSVTACQEVRAQLVVIKTAEEQNFLQLQTSRSNRFSWMGLSDLNQEGTWQWVDGSPLSPSFQRYWNSGEPNNSGNEDCAEFSGSGWNDNRCDVDNYWICKKPAACFRDE
# Experiments:
# Experiment in all cases: glycan array binding signal (z-score within array); higher = stronger binding
# Conditions in all cases: glycan notation: IUPAC condensed, linker removed
# [1] = target: Gal(a1-3)Gal(b1-4)GlcNAc
# In short: (§1)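 The Consortium for Functional Glycomics database supplied 3228 glycan arrays, of which those lacking an available protein sequence were dropped. The binding signal, a within-array Z-score, was averaged across arrays of the same protein sequence and across linkers. Negative scores can be read as non-binding.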
# [2] = target: Gal(a1-3)Gal(b1-4)GlcNAc(b1-2)Man
# In short: as §1
# [3] = target: Gal(a1-3)Gal(b1-4)GlcNAc(b1-2)Man(a1-3)[Gal(a1-3)Gal(b1-4)GlcNAc(b1-2)Man(a1-6)]Man(b1-4)GlcNAc(b1-4)GlcNAc
# In short: as §1
# [4] = target: Gal(a1-3)Gal(b1-4)GlcNAc(b1-3)GalNAc
# In short: as §1
# [5] = target: Gal(a1-3)Gal(b1-4)GlcNAc(b1-6)GalNAc
# In short: as §1
# [6] = target: Gal(a1-3)Gal(b1-4)[Fuc(a1-3)]GlcNAc
# In short: as §1
# [7] = target: Gal(a1-3)Gal(b1-4)[Fuc(a1-3)]GlcNAc(b1-2)Man(a1-3)[Gal(a1-3)Gal(b1-4)[Fuc(a1-3)]GlcNAc(b1-2)Man(a1-6)]Man(b1-4)GlcNAc(b1-4)GlcNAc
# In short: as §1
# [8] = target: Gal(a1-3)GalNAc
# In short: as §1
# [9] = target: Gal(a1-3)[Gal(a1-4)]Gal(b1-4)GlcNAc
# In short: as §1
# [10] = target: Gal(a1-4)Gal(b1-3)GlcNAc(b1-2)Man(a1-3)[Gal(a1-4)Gal(b1-3)GlcNAc(b1-2)Man(a1-6)]Man(b1-4)GlcNAc(b1-4)GlcNAc
# In short: as §1
# [11] = target: Gal(a1-4)Gal(b1-4)Glc
# In short: as §1
# [12] = target: Gal(a1-4)Gal(b1-4)GlcNAc
# In short: as §1
# [13] = target: Gal(a1-4)Gal(b1-4)GlcNAc(b1-2)Man(a1-3)[Gal(a1-4)Gal(b1-4)GlcNAc(b1-2)Man(a1-6)]Man(b1-4)GlcNAc(b1-4)GlcNAc
# In short: as §1
# [14] = target: Gal(a1-4)Gal(b1-4)GlcNAc(b1-3)Gal(b1-4)Glc
# In short: as §1
# [15] = target: Gal(a1-4)GlcNAc
# In short: as §1
# [16] = target: Gal(a1-6)Glc
# In short: as §1
# [17] = target: Gal(b1-2)Gal
# In short: as §1
# [18] = target: Gal(b1-3)Gal
# In short: as §1
# [19] = target: Gal(b1-3)Gal(b1-4)GlcNAc
# In short: as §1
# [20] = target: Gal(b1-3)GalNAc
# In short: as §1
# [21] = target: Gal(b1-3)GalNAc(a1-3)[Fuc(a1-2)]Gal(b1-4)Glc
# In short: as §1
# [22] = target: Gal(b1-3)GalNAc(a1-3)[Fuc(a1-2)]Gal(b1-4)GlcNAc
# In short: as §1
# [23] = target: Gal(b1-3)GalNAc(b1-3)Gal
# In short: as §1
# [24] = target: Gal(b1-3)GalNAc(b1-3)Gal(a1-4)Gal(b1-4)Glc
# In short: as §1
# [25] = target: Gal(b1-3)GalNAc(b1-4)Gal(b1-4)Glc
# In short: as §1
# [26] = target: Gal(b1-3)GalNAc(b1-4)[Neu5Ac(a2-3)]Gal(b1-4)Glc
# In short: as §1
# [27] = target: Gal(b1-3)GlcNAc
# In short: as §1
# [28] = target: Gal(b1-3)GlcNAc(a1-3)Gal(b1-4)GlcNAc
# In short: as §1
# [29] = target: Gal(b1-3)GlcNAc(a1-6)Gal(b1-4)GlcNAc
# In short: as §1
# [30] = target: Gal(b1-3)GlcNAc(b1-2)Man
# In short: as §1
# [31] = target: Gal(b1-3)GlcNAc(b1-2)Man(a1-3)[Gal(b1-3)GlcNAc(b1-2)Man(a1-6)]Man(b1-4)GlcNAc(b1-4)GlcNAc
# In short: as §1
# [32] = target: Gal(b1-3)GlcNAc(b1-2)Man(a1-3)[Gal(b1-3)GlcNAc(b1-2)Man(a1-6)]Man(b1-4)GlcNAc(b1-4)[Fuc(a1-6)]GlcNAc
# In short: as §1
# [33] = target: Gal(b1-3)GlcNAc(b1-2)Man(a1-3)[GlcNAc(b1-4)][Gal(b1-3)GlcNAc(b1-2)Man(a1-6)]Man(b1-4)GlcNAc(b1-4)GlcNAc
# In short: as §1
# [34] = target: Gal(b1-3)GlcNAc(b1-2)[Gal(b1-3)GlcNAc(b1-6)]Man(a1-6)[Gal(b1-3)GlcNAc(b1-2)Man(a1-3)]Man(b1-4)GlcNAc(b1-4)GlcNAc
# In short: as §1
# [35] = target: Gal(b1-3)GlcNAc(b1-3)Gal(b1-3)GlcNAc
# In short: as §1
# [36] = target: Gal(b1-3)GlcNAc(b1-3)Gal(b1-4)Glc
# In short: as §1
# [37] = target: Gal(b1-3)GlcNAc(b1-3)Gal(b1-4)GlcNAc
# In short: as §1
binder,measurement,setting,value
B1,glycan array binding signal (z-score),[1],-0.63
same,glycan array binding signal (z-score),[2],-0.666
same,glycan array binding signal (z-score),[3],0.087
same,glycan array binding signal (z-score),[4],0.529
same,glycan array binding signal (z-score),[5],-0.796
same,glycan array binding signal (z-score),[6],-0.822
same,glycan array binding signal (z-score),[7],-0.757
same,glycan array binding signal (z-score),[8],-0.111
same,glycan array binding signal (z-score),[9],-0.469
same,glycan array binding signal (z-score),[10],-0.125
same,glycan array binding signal (z-score),[11],-0.687
same,glycan array binding signal (z-score),[12],-0.25
same,glycan array binding signal (z-score),[13],-0.683
same,glycan array binding signal (z-score),[14],-0.685
same,glycan array binding signal (z-score),[15],-0.867
same,glycan array binding signal (z-score),[16],-0.326
same,glycan array binding signal (z-score),[17],-0.796
same,glycan array binding signal (z-score),[18],-0.88
same,glycan array binding signal (z-score),[19],-0.852
same,glycan array binding signal (z-score),[20],-0.793
same,glycan array binding signal (z-score),[21],0.585
same,glycan array binding signal (z-score),[22],1.15
same,glycan array binding signal (z-score),[23],-0.574
same,glycan array binding signal (z-score),[24],-0.376
same,glycan array binding signal (z-score),[25],-0.285
same,glycan array binding signal (z-score),[26],-0.645
same,glycan array binding signal (z-score),[27],-0.714
same,glycan array binding signal (z-score),[28],0.126
same,glycan array binding signal (z-score),[29],1.38
same,glycan array binding signal (z-score),[30],-0.708
same,glycan array binding signal (z-score),[31],-0.64
same,glycan array binding signal (z-score),[32],-0.814
same,glycan array binding signal (z-score),[33],-0.013
same,glycan array binding signal (z-score),[34],-0.7
same,glycan array binding signal (z-score),[35],0.038
same,glycan array binding signal (z-score),[36],-0.799
same,glycan array binding signal (z-score),[37],-0.684

# 2 entries from above in another layout:
binder	measurement	setting	value
B1	glycan array binding signal (z-score)	[14]	-0.685
same	glycan array binding signal (z-score)	[31]	-0.64
